In publication PMC3121763:
Construct, isoform or probe ends are uncertain for at least one entry. The comparison behind a weaker result is the experiment's own reference, which may not be listed here. Where a protein sequence is shown, tags need not be part of it.

Tested on: T1, GtgR (Gifsy-2 phage repressor + also written GftR) (Salmonella enterica ATCC14028, Gifsy-2 prophage)
T1 sequence (looked up, limits assumed): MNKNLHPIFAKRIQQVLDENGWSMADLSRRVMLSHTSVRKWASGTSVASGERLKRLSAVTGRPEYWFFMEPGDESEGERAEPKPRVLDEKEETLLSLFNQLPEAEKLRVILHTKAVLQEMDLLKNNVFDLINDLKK
Test: EMSA
Conditions: GftA antirepressor (~0.01-10 pmol) added to preformed complex, operator progressively released; 20 mM Tris-HCl pH 7.5, 50 mM NaCl, 0.2 mM EDTA (5x stock in Methods: 1 mM), 1 mM MgCl2, 5% glycerol, PMSF, 50 ug/mL sonicated salmon sperm DNA; room temperature; recombinant protein; protein details: N-terminal 6xHis; label: 32P 5' end (T4 PNK); probe letters rebuilt from the primers and the genome

“GTTCGCCGATGCTCATTTGAGTCATGTGGTTACTGATTTTGATTTTTAATTGGTTGTCCATTTGGCTCTCCAGTTCTACGAGTTGGTAGCTGGAGATTATCACGTAAAACTTTAGGTTCCAACAAAAATCAATCTAATAGTTCCAATGAATAAAGAAACTGAAGGTTGTAAAATGTGAATATGAACAAAAATCTTCATCCCATTTTCGCCAAGCGTATCCAGCAAGTTCTGGATGAGAACGGCTGGTCTATGGCTGACCTCTCACGG (double strand) [Gifsy-2 right operator fragment (267 bp)]”: binds more weakly.
